Experimental data taken from patent US20230091042A1, “SMARCA2-VHL DEGRADERS” (AMGEN INC., priority 2020, published 2023).
The name of at least one read-out is uncertain.

Chains of the proteins cited; added tags and fusions are not shown.
UniProt P51531, whole entry: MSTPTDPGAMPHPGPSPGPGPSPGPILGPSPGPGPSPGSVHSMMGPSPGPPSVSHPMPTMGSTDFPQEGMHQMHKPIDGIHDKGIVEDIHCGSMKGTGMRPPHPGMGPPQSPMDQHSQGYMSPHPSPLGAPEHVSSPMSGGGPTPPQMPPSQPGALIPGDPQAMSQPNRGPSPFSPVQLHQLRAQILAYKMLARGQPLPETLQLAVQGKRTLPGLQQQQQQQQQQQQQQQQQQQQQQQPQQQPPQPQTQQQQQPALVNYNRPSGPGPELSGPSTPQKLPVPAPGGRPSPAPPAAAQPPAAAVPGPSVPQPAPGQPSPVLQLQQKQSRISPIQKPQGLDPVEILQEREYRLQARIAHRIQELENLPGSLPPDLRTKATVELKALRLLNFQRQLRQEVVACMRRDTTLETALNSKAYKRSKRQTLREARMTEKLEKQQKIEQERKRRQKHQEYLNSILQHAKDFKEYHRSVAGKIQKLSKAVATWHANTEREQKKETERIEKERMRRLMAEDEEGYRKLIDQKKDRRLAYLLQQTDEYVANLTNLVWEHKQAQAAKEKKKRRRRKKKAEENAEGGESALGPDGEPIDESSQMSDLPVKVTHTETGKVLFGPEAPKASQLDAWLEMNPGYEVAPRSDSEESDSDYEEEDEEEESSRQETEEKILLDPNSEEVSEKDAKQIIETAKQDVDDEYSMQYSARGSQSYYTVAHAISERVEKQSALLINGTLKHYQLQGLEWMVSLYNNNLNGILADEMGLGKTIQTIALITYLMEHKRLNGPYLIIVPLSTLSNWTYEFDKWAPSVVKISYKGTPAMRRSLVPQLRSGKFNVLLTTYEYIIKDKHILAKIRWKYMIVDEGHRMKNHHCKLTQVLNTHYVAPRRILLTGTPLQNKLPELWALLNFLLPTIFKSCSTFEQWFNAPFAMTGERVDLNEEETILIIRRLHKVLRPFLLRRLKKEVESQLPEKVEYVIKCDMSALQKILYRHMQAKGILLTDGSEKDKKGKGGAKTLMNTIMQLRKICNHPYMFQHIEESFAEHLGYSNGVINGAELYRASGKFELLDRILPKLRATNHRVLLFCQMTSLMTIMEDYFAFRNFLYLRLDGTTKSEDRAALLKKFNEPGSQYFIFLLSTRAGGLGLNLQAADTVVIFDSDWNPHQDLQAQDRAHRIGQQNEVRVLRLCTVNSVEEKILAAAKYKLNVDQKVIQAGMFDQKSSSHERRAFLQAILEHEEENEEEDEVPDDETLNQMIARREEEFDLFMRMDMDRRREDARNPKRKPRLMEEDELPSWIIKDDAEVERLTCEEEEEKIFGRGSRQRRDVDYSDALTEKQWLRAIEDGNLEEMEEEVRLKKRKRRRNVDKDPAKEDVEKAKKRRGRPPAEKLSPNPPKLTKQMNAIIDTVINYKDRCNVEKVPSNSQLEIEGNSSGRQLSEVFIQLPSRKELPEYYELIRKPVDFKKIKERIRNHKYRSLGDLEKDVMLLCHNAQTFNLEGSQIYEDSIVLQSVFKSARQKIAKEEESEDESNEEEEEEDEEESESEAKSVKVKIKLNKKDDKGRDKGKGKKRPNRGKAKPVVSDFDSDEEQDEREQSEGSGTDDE

Target: T1, SMARCA2 (Homo sapiens, UniProt P51531)
T1 construct: endogenous in cells; host or cells: A375 cells (ATCC CRL-1619)
Experiment: SMARCA2 MSD assay in A375 cells (SMARCA2 degradation, 2 h)
Type: cell-based
Conditions: 2 h compound treatment, minimum of the SMARCA2 degradation curve
Procedure: SMARCA2 and SMARCA4 MSD Assays in A375 Cells:
A375 cells (ATCC® CRL-1619™) were cultured in RPMI 1640 Medium (ThermoFisher Scientific 11875093) containing 10% fetal bovine serum (ThermoFisher Scientific 16000044) and 1× penicillin-streptomycin-glutamine (ThermoFisher Scientific 10378016). Sixteen hours prior to compound treatment, cells were seeded in 96-well cell culture plates (Corning 3904) at a density of 2.5×10^5 cells/well (90 uL/well) and incubated at 37° C., 5% CO2. A 1:3 compound dose-response titration was diluted in growth media (1:20), added to appropriate wells of a cell culture plate (1:10) and then assay plates were incubated at 37° C., 5% CO2. After 2 h of compound treatment, cells were lysed in MSD lysis buffer (MSD R60TX-2) containing protease (Roche 04693116001) and phosphatase (Roche 04906837001) inhibitors.
. Plates were washed with 300 μL per well MSD wash buffer (MSD R61TX-1) between each step. Following the last incubation, plates were washed with MSD wash buffer then 150 uL of MSD read buffer (MSD R92TC-2) was added to each well. Plates were immediately read on a MSD plate reader (MSD Sector Imager 6000) and data was analyzed using a 4-parameter logistic model to calculate IC50 values.

Cc1ncsc1-c1ccc(CNC(=O)[C@@H]2C[C@@H](O)CN2C(=O)[C@@H](NC(=O)c2ccnc(N3CCN(c4cc(-c5ccccc5O)nnc4N)CC3)c2)C(C)(C)C)cc1 [Example 1, 2-(4-(3-Amino-6-(2-hydroxyphenyl)pyridazin-4-yl)piperazin-1-yl)-N—((S)-1-((2S,4R)-4-hydroxy-2-((4-(4-methylthiazol-5-yl)benzyl)carbamoyl)pyrrolidin-1-yl)-3,3-dimethyl-1-oxobutan-2-yl)isonicotinamide]
A375 SMARCA2 MSD IC50 min value: 0%
